# Laboratory results reported in PMC10723718.
# Results are given in words; binding and its absence hold for the method and conditions named. Sequences can lack the tags named with a protein.
# T1: GST-PhoRC (M. tuberculosis) (UniProt P71815)
# T1 sequence: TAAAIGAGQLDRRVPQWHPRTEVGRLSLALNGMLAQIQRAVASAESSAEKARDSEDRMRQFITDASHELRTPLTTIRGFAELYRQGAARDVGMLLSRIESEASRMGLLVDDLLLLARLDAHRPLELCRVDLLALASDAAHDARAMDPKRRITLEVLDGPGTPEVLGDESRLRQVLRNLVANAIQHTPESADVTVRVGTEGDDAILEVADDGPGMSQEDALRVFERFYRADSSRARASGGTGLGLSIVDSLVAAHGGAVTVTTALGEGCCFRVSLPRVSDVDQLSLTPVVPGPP
# B1: His6-PrrA (protein, UniProt P9WGM1 1-233)
# chain: MDTGVTSPRVLVVDDDSDVLASLERGLRLSGFEVATAVDGAEALRSATENRPDAIVLDINMPVLDGVSVVTALRAMDNDVPVCVLSARSSVDDRVAGLEAGADDYLVKPFVLAELVARVKALLRRRGSTATSSSETITVGPLEVDIPGRRARVNGVDVDLTKREFDLLAVLAEHKTAVLSRAQLLELVWGYDFAADTNVVDVFIGYLRRKLEAGGGPRLLHTVRGVGFVLRMQ
# Target: T1, GST-PhoRC (M. tuberculosis)
# Experiment: pull-down; both purified
binder,measurement,value
B1,binding,no binding
